Test results from PubChem BioAssay AID504467 (National Center for Advancing Translational Sciences (NCATS), 2011).
Among all 330,000 compounds or so, about 7,700 (2.3%) were called active. The shares of active, inactive and inconclusive entries below differ from those in the screen. Calls come from the whole dose curve; as a rule, active = well fitted inhibition curve with a large enough effect; inconclusive = small, poorly fitted or top-dose-only effect, or effect the other way; inactive = flat fitted curve, though single readings scatter. Where the call is inconclusive, the potency comes from a doubtful curve fit.
Potency is the fitted concentration of half-maximal effect.

Assay: qHTS screen for small molecules that inhibit ELG1-dependent DNA repair in human embryonic kidney (HEK293T) cells expressing luciferase-tagged ELG1; note: nearly all actives have a fitted effect of over 55% in size
Details: HEK293T ELG1-luciferase reporter, luminescence, 16 h, DNA damage induced by 5-fluorouridine; series mostly up to 46.1 µM
Procedure, shortened: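 5-Fluorouridine DNA damage + compound/DMSO, 2,000 cells/well, 16 h, 37 °C/5% CO2. ONE-Glo, 30 min RT, luminescence. Readout = decrease in reporter signal.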
In the case of `COc1ccc(C(=O)/C=C/c2ccc(N3CCCCC3)c([N+](=O)[O-])c2)c(OC)c1`, the Potency was “inactive”. In the case of `CC1=Cc2ccccc2C(C#N)N1C(=O)c1ccccc1` (stereo unspecified), the Potency was inconclusive: 20.6 µM [inhibitor, partial curve, poor fit]. In the case of `CCNC(=O)CC1C(=O)N(C)C(=S)N1NC(=O)c1ccc(Cl)cc1` (stereo unspecified), the Potency was “inactive”. In the case of `COc1cnc(-c2ccccc2)nc1Oc1ccc(C(C)(C)C)cc1`, the Potency was “inactive”. In the case of `N#CCCN(Cc1cccnc1)S(=O)(=O)c1ccc(S(=O)(=O)N2CCCCCC2)cc1`, the Potency was inconclusive: 20.6 µM [inhibitor, single point]. For `C#CCOCCOCCOCCNc1nc(N2CCN(C(=O)[C@H]([C@@H](C)CC)n3cc([C@@H](N)CO)nn3)CC2)nc(N2CCN(C(=O)[C@H](Cc3ccc(O)cc3)n3cc([C@@H](N)C(C)CC)nn3)CC2)n1` (stereo partly specified), the Potency was inconclusive: 25.9 µM [activator, partial curve, poor fit]. In the case of `COc1ccc2c(c1OC)C(=O)N1c3ccccc3C(=O)N(c3ccccc3F)C21` (stereo unspecified), the Potency was inconclusive: 1.03 µM [inhibitor, full curve]. With `Clc1nc(Nc2ccc(N3CCOCC3)cc2)c2ccccc2n1` the Potency was inconclusive: 13 µM [inhibitor, partial curve]. With `O=C(NCc1ccccn1)C1CCN(S(=O)(=O)c2cc(Cl)ccc2Cl)CC1` the Potency was inconclusive: 6.51 µM [inhibitor, partial curve, poor fit]. For `O=S(=O)(c1ccc2nc(COc3ccc(Cl)cc3Cl)[nH]c2c1)N1CCOCC1`, the Potency was inconclusive: 29.1 µM [inhibitor, single point]. With `Cc1ccc2c(CC(=O)N3CCN(c4ccccc4)CC3)coc2c1` the Potency was inconclusive: 29.1 µM [inhibitor, single point]. For `Cc1nn(C)c(=O)n1-c1ccccc1`, the Potency was “inactive”. In the case of `CC(NC(=O)c1cc(COc2c(F)cccc2F)on1)c1cnn(-c2ccccc2)c1` (stereo unspecified), the Potency was inconclusive: 32.6 µM [inhibitor, single point]. In the case of `O=C(c1ccc(N2CCCC2=O)cc1)N1CCN(c2ccccc2)CC1`, the Potency was “inactive”. With `O=C(O)c1ccccc1-c1ccccc1C(=O)Nc1nc2ccccc2s1` the Potency was “inactive”. With `Cc1c(N2C(=O)/C(=C\c3ccccc3O)SC2=S)c(=O)n(-c2ccccc2)n1C` the Potency was inconclusive: 11.6 µM [activator, partial curve, poor fit]. In the case of `N#Cc1cn(-c2ccccc2)nc1-c1ccc2c(c1)OCCO2`, the Potency was inconclusive: 5.17 µM [activator, partial curve]. In the case of `O=C1CC/C=C\C[C@@H](CC(=O)N(CCO)Cc2ccccc2)C(=O)N[C@H](Cc2ccccc2)CO1`, the Potency was inconclusive: 18.3 µM [activator, single point]. In the case of `COC(=O)c1ccc(/C=N/Nc2nc(-c3ccc(Cl)cc3Cl)cs2)cc1`, the Potency was inconclusive: 32.6 µM [inhibitor, partial curve, poor fit]. For `COc1ccc(/C=C2\SC(=S)N(CCC(=O)N(CCO)c3ccccc3)C2=O)cc1OC`, the Potency was “inactive”. With `CC(C)[C@H](NS(=O)(=O)c1ccccc1)C(=O)OCn1nnc2ccccc2c1=O` the Potency was inconclusive: 23.1 µM [inhibitor, partial curve, poor fit]. With `Cc1ccc(-c2nn(-c3ccccc3)c3[nH]c(=O)c(CNCc4ccccc4)cc23)cc1` the Potency was inconclusive: 29.1 µM [inhibitor, single point]. With `CC(=O)c1cnn(-c2c(Cl)cc(Cl)cc2Cl)c1C` the Potency was inconclusive: 32.6 µM [inhibitor, partial curve, poor fit]. With `O=C1CCCCCN1Cc1nnc(SCc2nc3ccccc3s2)n1-c1ccccn1` the Potency was inconclusive: 10.3 µM [activator, partial curve]. With `CC1CCCC(NC(=O)c2cccs2)C1C` (stereo unspecified) the Potency was “inactive”. With `O=C(Nc1cccc(S(=O)(=O)N2CCCCC2)c1)c1ccc(Cl)nc1` the Potency was active: 20.6 µM. With `C=CCc1c(C)nc(SC)nc1Nc1ccc(C)cc1` the Potency was inconclusive: 14.6 µM [inhibitor, partial curve]. In the case of `O=C(Cn1cnc2c(nnn2-c2ccc(F)cc2)c1=O)NCc1ccco1`, the Potency was “inactive”. In the case of `Cc1nn2c3ccccc3nc2c2ccccc12`, the Potency was inconclusive: 16.4 µM [activator, partial curve, poor fit]. In the case of `NC(=S)N/N=C/c1ccc(C(F)(F)F)cc1`, the Potency was “inactive”. For `O=C(c1ccc(Cl)c(Cl)c1)c1cnc(Nc2ccccc2)s1`, the Potency was inconclusive: 14.6 µM [activator, single point]. In the case of `O=C(CCCc1ccccc1)Nc1ccnn1C1CCN(Cc2ccc(Cl)cc2)CC1`, the Potency was inconclusive: 20.6 µM [inhibitor, partial curve, poor fit]. In the case of `Cc1cc(C(=O)COC(=O)COc2ccccc2C#N)c(C)n1CC1CCCO1` (stereo unspecified), the Potency was inconclusive: 4.11 µM [activator, partial curve, poor fit]. With `FC(F)(F)c1nc2ccccc2n2c(-c3ccc(Cl)cc3)nnc12` the Potency was inconclusive: 3.98 µM [inhibitor, partial curve, poor fit]. For `CC1CC(C)CN(S(=O)(=O)c2ccc(C(=O)NCCCn3ccnc3)cc2)C1` (stereo unspecified), the Potency was inconclusive: 1.3 µM [inhibitor, full curve]. In the case of `COc1cccc(N2CCN(C(=S)NCc3ccco3)CC2)c1`, the Potency was “inactive”. In the case of `CC1=C(C(=O)OCCCCCl)C(c2cc3c(cc2Br)OCO3)NC(=O)N1` (stereo unspecified), the Potency was inconclusive: 2.51 µM [inhibitor, partial curve, poor fit]. For `CCOc1cc(/C=N/NS(=O)(=O)c2ccccc2)ccc1OS(=O)(=O)c1ccc(C)cc1`, the Potency was inconclusive: 18.4 µM [inhibitor, partial curve]. With `CN1/C(=C\C(=O)COC(=O)c2ccc(O)c(O)c2)C(C)(C)c2ccccc21` the Potency was active: 20.6 µM. In the case of `Cc1cc(NC(=O)C2CCCC2)n(-c2nc3ccccc3[nH]2)n1`, the Potency was “inactive”. For `O=C1OC[C@H]2CCCN2C(=O)[C@@H](CC(=O)N(CCO)Cc2ccccc2)C/C=C\C[C@H]1Cc1ccc(F)cc1`, the Potency was “inactive”. With `COc1cc(CN2CC(=O)N(c3ccccc3Cl)C2=S)cc(OC)c1OC` the Potency was inconclusive: 23.1 µM [inhibitor, single point]. With `O=C(NCC(=O)N(Cc1ccccc1)C(C(=O)NCC1CCCO1)c1ccccc1)c1cccs1` (stereo unspecified) the Potency was inconclusive: 11.6 µM [inhibitor, partial curve]. In the case of `COc1cccc(NC(=O)COC(=O)C2CCCCC2)c1`, the Potency was inconclusive: 16.4 µM [activator, single point]. In the case of `COc1ccccc1CNC(=O)c1oc2ccccc2c1C`, the Potency was “inactive”. With `Cc1ccccc1CSc1nnc(-c2ccncc2)o1` the Potency was inconclusive: 29.1 µM [activator, single point]. With `O=C(/C=C(\O)c1ccccc1)C(=O)NNC(=O)c1ccccc1` the Potency was “inactive”. In the case of `CC(C)[C@H](NC(=O)N1CC(=O)Nc2ccccc21)C(=O)N1CCC[C@H]1C(=O)O`, the Potency was inconclusive: 0.184 µM [activator, single point]. For `c1ccc2c(c1)nnn2-c1ncnc2sc3c(c12)CCCC3`, the Potency was “inactive”. In the case of `O=C(Nc1ccccc1Cl)c1cc(=O)c2ccccc2o1`, the Potency was inconclusive: 3.98 µM [activator, full curve, poor fit]. In the case of `COc1ccc2cc3cc(C(=O)NCCc4ccc(OC)c(OC)c4)oc3nc2c1`, the Potency was active: 5.17 µM. With `CCC(=O)Nc1cccc(NC(=O)c2ccc3c(c2)OCO3)c1` the Potency was inconclusive: 29.1 µM [activator, single point]. For `O=C(O)CSCc1nc2ccccc2s1`, the Potency was inconclusive: 29.1 µM [activator, single point]. With `NS(=O)(=O)c1ccc(NS(=O)(=O)c2ccc(Br)cc2)cc1` the Potency was “inactive”. With `N#CC1=C(N)N(c2ccc(F)cc2)C2=C(C1c1ccc(O)cc1)S(=O)(=O)CC2` (stereo unspecified) the Potency was “inactive”. For `CCOC(=O)C1(Cc2ccccc2)NC(c2ccccc2F)C2C(=O)N(CC)C(=O)C21` (stereo unspecified), the Potency was inconclusive: 25.9 µM [inhibitor, partial curve, poor fit]. In the case of `Cn1c(CN2CCCCC2)nc2cc(NC(=O)c3ccc(F)cc3)ccc21`, the Potency was inconclusive: 8.91 µM [inhibitor, partial curve, poor fit]. For `Cc1ccc(NC(=O)c2ccc(Cl)c(S(=O)(=O)NCC3CCCO3)c2)c(O)c1` (stereo unspecified), the Potency was inconclusive: 23.1 µM [inhibitor, partial curve, poor fit]. In the case of `COc1ccc(C2CC(c3ccc([N+](=O)[O-])cc3)=NN2C(=O)c2ccccc2)cc1OC` (stereo unspecified), the Potency was inconclusive: 29.1 µM [inhibitor, single point]. In the case of `COc1ccc(CN(CCC(c2ccccc2)C2CCOC(C)(C)C2)C(C)=O)cc1` (stereo unspecified), the Potency was active: 16.4 µM. In the case of `CC[C@]12c3[nH]c4cc(-c5ccco5)ccc4c3CCN1C(=O)[C@@H](CC(=O)NCc1cccc(C(F)(F)F)c1)C[C@@H]2C(=O)N1CCN(C(=O)c2ccco2)CC1`, the Potency was inconclusive: 29.1 µM [inhibitor, single point]. For `COCC(=O)Nc1ccccc1C(=O)Nc1ccc(OC)cc1`, the Potency was inconclusive: 16.4 µM [activator, partial curve]. In the case of `C/C(=N\NC(=O)c1cccc([N+](=O)[O-])c1)c1cccc(NC(=O)C2CC2)c1`, the Potency was inconclusive: 29.1 µM [inhibitor, single point]. With `Cc1c(Cc2ccccc2)c(=O)oc2cc(OCC(=O)N3CCC(C(N)=O)CC3)ccc12` the Potency was active: 0.82 µM. In the case of `COc1ccc(Br)cc1/C=N/NC(=O)c1ccc(COc2ccc3c(c2)CCC3)o1`, the Potency was inconclusive: 14.6 µM [activator, partial curve, poor fit]. With `C=CCNC(=O)c1ccc(-c2nc(-c3ccccc3)cs2)cc1` the Potency was inconclusive: 8.2 µM [activator, partial curve, poor fit].
